Laboratory results published in the supplement of paper PMC4862054.
Most entries show no effect beyond the scatter of the controls.

Legend:
Experiment in all cases: normalised response (% of control), CellTox Green; higher = less cell death (100 = DMSO, 0 = benzethonium chloride kill control)
Conditions in all cases: incubation time: 72 h
BT-474 = system: BT-474
Description: (§1)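 DSRT, 72 h incubation, CellTox Green / CellTiter-Glo readout. Signal is normalised to DMSO and benzethonium chloride controls. Value is the normalised response at the lowest tested concentration.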

BT-549 = system: BT-549
Description: as §1

CAL-120 = system: CAL-120
Description: as §1

CAL-148 = system: CAL-148
Description: as §1

CAL-51 = system: CAL-51
Description: as §1

CAL-85-1 = system: CAL-85-1
Description: as §1

DU-4475 = system: DU-4475
Description: as §1

HCC1143 = system: HCC1143
Description: as §1

HCC1599 = system: HCC1599
Description: as §1

HCC1937 = system: HCC1937
Description: as §1

HDQ-P1 = system: HDQ-P1
Description: as §1

Hs578T = system: Hs578T
Description: as §1

MCF-10A = system: MCF-10A
Description: as §1

MDA-MB-231 = system: MDA-MB-231
Description: as §1

MDA-MB-436 = system: MDA-MB-436
Description: as §1

MDA-MB-453 = system: MDA-MB-453
Description: as §1

MDA-MB-468 = system: MDA-MB-468
Description: as §1

MFM-223 = system: MFM-223
Description: as §1

SMILES: Cc1c(Cn2c(C)nc3c(C(=O)O)cc(N4CCOCC4)cc32)cccc1C(F)(F)F (1 nM)
- normalised response (BT-474): 92.5%
- normalised response (BT-549): 99%
- normalised response (CAL-120): 104%
- normalised response (CAL-148): 110%
- normalised response (CAL-51): 114%
- normalised response (CAL-85-1): 101%
- normalised response (DU-4475): 115%
- normalised response (HCC1143): 117%
- normalised response (HCC1599): 123%
- normalised response (HCC1937): 117%
- normalised response (HDQ-P1): 88.8%
- normalised response (Hs578T): 121%
- normalised response (MCF-10A): 114%
- normalised response (MDA-MB-231): 111%
- normalised response (MDA-MB-436): 109%
- normalised response (MDA-MB-453): 110%
- normalised response (MDA-MB-468): 82.7%
- normalised response (MFM-223): 102%

SMILES: N#Cc1ccc(COC[C@H]2O[C@@H](n3c(NCc4ccc(Cl)c(Cl)c4)nc4c(N)ncnc43)[C@H](O)[C@@H]2O)cc1 (1 nM)
- normalised response (BT-474): 100%
- normalised response (BT-549): 106%
- normalised response (CAL-120): 99%
- normalised response (CAL-148): 93.7%
- normalised response (CAL-51): 112%
- normalised response (CAL-85-1): 112%
- normalised response (DU-4475): 102%
- normalised response (HCC1143): 63.2%
- normalised response (HCC1599): 98.8%
- normalised response (HCC1937): 109%
- normalised response (HDQ-P1): 98%
- normalised response (Hs578T): 114%
- normalised response (MDA-MB-231): 112%
- normalised response (MDA-MB-436): 95.8%
- normalised response (MDA-MB-453): 116%
- normalised response (MDA-MB-468): 110%
- normalised response (MFM-223): 91.6%

SMILES: CNC(=O)c1cccc(-c2ccc3c(N4CCOC[C@@H]4C)nc(N4CCOC[C@@H]4C)nc3n2)c1 [AZD2014] (1 nM)
- normalised response (BT-474): 88.3%
- normalised response (BT-549): 77.7%
- normalised response (CAL-120): 101%
- normalised response (CAL-148): 98%
- normalised response (CAL-51): 129%
- normalised response (CAL-85-1): 96.9%
- normalised response (DU-4475): 103%
- normalised response (HCC1143): 93.5%
- normalised response (HCC1599): 110%
- normalised response (HCC1937): 110%
- normalised response (HDQ-P1): 82.4%
- normalised response (Hs578T): 105%
- normalised response (MCF-10A): 109%
- normalised response (MDA-MB-231): 118%
- normalised response (MDA-MB-436): 83.5%
- normalised response (MDA-MB-453): 105%
- normalised response (MDA-MB-468): 70.3%
- normalised response (MFM-223): 102%

SMILES: O=C(O)CCCCC(CCSCc1ccccc1)SCc1ccccc1 (stereo unspecified) [CPI-613] (1 nM)
- normalised response (BT-474): 99.1%
- normalised response (BT-549): 85%
- normalised response (CAL-120): 101%
- normalised response (CAL-148): 94.6%
- normalised response (CAL-51): 99%
- normalised response (CAL-85-1): 103%
- normalised response (DU-4475): 103%
- normalised response (HCC1143): 117%
- normalised response (HCC1599): 102%
- normalised response (HDQ-P1): 78.5%
- normalised response (Hs578T): 105%
- normalised response (MCF-10A): 102%
- normalised response (MDA-MB-231): 117%
- normalised response (MDA-MB-436): 106%
- normalised response (MDA-MB-453): 90.8%
- normalised response (MDA-MB-468): 110%
- normalised response (MFM-223): 96.8%

SMILES: COc1cc2c(Oc3ccc4[nH]c(C)cc4c3F)ncnc2cc1OCCCN1CCCC1 [Cediranib] (0.1 nM)
- normalised response (BT-474): 102%
- normalised response (BT-549): 83.3%
- normalised response (CAL-120): 96.1%
- normalised response (CAL-148): 81.6%
- normalised response (CAL-51): 120%
- normalised response (CAL-85-1): 104%
- normalised response (DU-4475): 98.6%
- normalised response (HCC1143): 120%
- normalised response (HCC1599): 97.5%
- normalised response (HCC1937): 91.6%
- normalised response (HDQ-P1): 100%
- normalised response (Hs578T): 90.8%
- normalised response (MCF-10A): 86%
- normalised response (MDA-MB-231): 99.2%
- normalised response (MDA-MB-436): 76.7%
- normalised response (MDA-MB-453): 110%
- normalised response (MDA-MB-468): 72.7%
- normalised response (MFM-223): 94.3%

SMILES: C[C@]12CC[C@@H]3c4ccc(OC(=O)N(CCCl)CCCl)cc4CC[C@H]3[C@@H]1CC[C@@H]2O [Estramustine] (1 nM)
- normalised response (BT-474): 97.5%
- normalised response (BT-549): 99.6%
- normalised response (CAL-120): 94.7%
- normalised response (CAL-148): 61.2%
- normalised response (CAL-51): 111%
- normalised response (CAL-85-1): 102%
- normalised response (DU-4475): 96.4%
- normalised response (HCC1143): 92.8%
- normalised response (HCC1599): 97.6%
- normalised response (HCC1937): 81.3%
- normalised response (HDQ-P1): 52.3%
- normalised response (Hs578T): 56.5%
- normalised response (MCF-10A): 90%
- normalised response (MDA-MB-231): 93.2%
- normalised response (MDA-MB-436): 97.5%
- normalised response (MDA-MB-453): 99.4%
- normalised response (MDA-MB-468): 130%
- normalised response (MFM-223): 94.1%

SMILES: NC(=O)c1cccc2cn(-c3ccc([C@@H]4CCCNC4)cc3)nc12 [MK-4827] (1 nM)
- normalised response (BT-474): 102%
- normalised response (BT-549): 95%
- normalised response (CAL-120): 96.3%
- normalised response (CAL-148): 96.1%
- normalised response (CAL-51): 94%
- normalised response (CAL-85-1): 99.7%
- normalised response (DU-4475): 100%
- normalised response (HCC1143): 109%
- normalised response (HCC1599): 81.3%
- normalised response (HDQ-P1): 85.5%
- normalised response (Hs578T): 108%
- normalised response (MCF-10A): 79.8%
- normalised response (MDA-MB-231): 91.2%
- normalised response (MDA-MB-436): 96.1%
- normalised response (MDA-MB-453): 111%
- normalised response (MDA-MB-468): 95.5%
- normalised response (MFM-223): 100%

SMILES: CC1(C)CNc2cc(NC(=O)c3cccnc3NCc3ccncc3)ccc21 [Motesanib] (1 nM)
- normalised response (BT-474): 99.3%
- normalised response (CAL-120): 99.3%
- normalised response (CAL-148): 103%
- normalised response (CAL-51): 115%
- normalised response (CAL-85-1): 103%
- normalised response (DU-4475): 90.5%
- normalised response (HCC1143): 118%
- normalised response (HCC1599): 102%
- normalised response (HCC1937): 107%
- normalised response (HDQ-P1): 100%
- normalised response (Hs578T): 88.1%
- normalised response (MCF-10A): 91.4%
- normalised response (MDA-MB-231): 103%
- normalised response (MDA-MB-436): 61.6%
- normalised response (MDA-MB-468): 77.9%
- normalised response (MFM-223): 96%

SMILES: COC(=O)c1ccc2c(c1)NC(=O)/C2=C(\Nc1ccc(N(C)C(=O)CN2CCN(C)CC2)cc1)c1ccccc1 [Nintedanib] (1 nM)
- normalised response (BT-474): 98.2%
- normalised response (BT-549): 101%
- normalised response (CAL-120): 102%
- normalised response (CAL-148): 92.7%
- normalised response (CAL-51): 117%
- normalised response (CAL-85-1): 108%
- normalised response (DU-4475): 102%
- normalised response (HCC1143): 129%
- normalised response (HCC1599): 96.3%
- normalised response (HCC1937): 78.8%
- normalised response (HDQ-P1): 97.9%
- normalised response (Hs578T): 108%
- normalised response (MDA-MB-231): 114%
- normalised response (MDA-MB-436): 51.2%
- normalised response (MDA-MB-453): 103%
- normalised response (MDA-MB-468): 111%
- normalised response (MFM-223): 102%

SMILES: C/C(=C\c1csc(C)n1)[C@@H]1C[C@@H]2O[C@]2(C)CCC[C@H](C)[C@H](O)[C@@H](C)C(=O)C(C)(C)[C@@H](O)CC(=O)O1 [Patupilone] (0.1 nM)
- normalised response (BT-474): 102%
- normalised response (BT-549): 87.2%
- normalised response (CAL-120): 102%
- normalised response (CAL-148): 68%
- normalised response (CAL-51): 102%
- normalised response (CAL-85-1): 104%
- normalised response (DU-4475): 99%
- normalised response (HCC1143): 104%
- normalised response (HCC1599): 81.1%
- normalised response (HCC1937): 110%
- normalised response (Hs578T): 103%
- normalised response (MCF-10A): 90.9%
- normalised response (MDA-MB-231): 55.8%
- normalised response (MDA-MB-436): 91.4%
- normalised response (MDA-MB-453): 110%
- normalised response (MFM-223): 99.2%

SMILES: CS(=O)(=O)c1ccc(C2=C(c3ccccc3)C(=O)OC2)cc1 [Rofecoxib] (1 nM)
- normalised response (BT-474): 101%
- normalised response (BT-549): 92.8%
- normalised response (CAL-120): 106%
- normalised response (CAL-148): 88%
- normalised response (CAL-51): 88.2%
- normalised response (CAL-85-1): 95.4%
- normalised response (DU-4475): 108%
- normalised response (HCC1143): 127%
- normalised response (HCC1599): 110%
- normalised response (HCC1937): 110%
- normalised response (HDQ-P1): 86.8%
- normalised response (Hs578T): 73.4%
- normalised response (MCF-10A): 111%
- normalised response (MDA-MB-231): 120%
- normalised response (MDA-MB-436): 99.8%
- normalised response (MDA-MB-453): 110%
- normalised response (MDA-MB-468): 101%

SMILES: CCC1=C[C@@H]2CN(C1)Cc1c([nH]c3ccccc13)[C@@](C(=O)OC)(c1cc3c(cc1OC)N(C)[C@H]1[C@@](O)(C(=O)OC)[C@H](OC(C)=O)[C@]4(CC)C=CCN5CC[C@]31[C@@H]54)C2 [Vinorelbine] (1 nM)
- normalised response (BT-474): 97.1%
- normalised response (BT-549): 101%
- normalised response (CAL-120): 105%
- normalised response (CAL-148): 54.6%
- normalised response (CAL-51): 104%
- normalised response (CAL-85-1): 94%
- normalised response (DU-4475): 112%
- normalised response (HCC1143): 103%
- normalised response (HCC1599): 111%
- normalised response (HDQ-P1): 105%
- normalised response (Hs578T): 113%
- normalised response (MCF-10A): 109%
- normalised response (MDA-MB-231): 120%
- normalised response (MDA-MB-436): 98.3%
- normalised response (MDA-MB-453): 101%
- normalised response (MDA-MB-468): 91.4%
- normalised response (MFM-223): 64.6%
